# Source: PubChem BioAssay AID2685 (National Center for Advancing Translational Sciences (NCATS), 2010)
# The list shows a part of the results. The main result of the screen is listed elsewhere. These columns were measured beside it and carry no call. The list favours compounds with an active or inconclusive main result. Words in brackets tell the shape of the fitted curve; partial curves, single points and poor fits give uncertain potencies.
# Assay: qHTS Assay for Lipid Storage Modulators in Drosophila S3 Cells;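 for cell number change: cells counted by Cell Tracker Red CMTPX staining in the red channel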
# Conditions: BODIPY lipid droplet fluorescence, 18-24 h; for cell number change: measured here: cell count max response, cells fed with added oleic acid
# Summary of the method: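 Drosophila S3 cells got compounds at several concentrations plus oleic acid (400 uM solution). Laser-scanning cytometry with 488 nm excitation read lipid droplets at 500-530 nm and cells at 575-640 nm. Percent activity was relative to 20 uM Triacsin C.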
# [1] = measured here: lipid fluorescence (Fed channel) AC50, cells fed with added oleic acid
# [2] = measured here: cell number channel AC50, cells fed with added oleic acid
SMILES,cell number change [%],AC50 [1],AC50 [2]
NC(=O)C1Cc2ccccc2CN1C(=O)c1cccc(Oc2ccccc2)c1 (centres undefined),9.72,"0.58 µM [falling, single point]",
Cc1ccc(C(=O)CSC2=NC(N)=C(C#N)C3(CCCCC3)C2C(N)=O)cc1 (centres undefined),0.264,"5.8 µM [rising, single point]",
CCN(CC)CC1(O)CCN(C(=O)c2ccc(Cl)c(Cl)c2)CC1,-18.3,"35.5 µM [falling, single point]",
Cc1cccc(Nc2nc(C)cc(C)c2C#N)c1,6.57,"14.6 µM [rising, partial curve]",
Cc1c(Br)c([N+](=O)[O-])nn1C(C)C(=O)NCc1cccs1 (centres undefined),-15.1,"3.66 µM [falling, partial curve, poor fit]","6.51 µM [falling, single point]"
CC(C)Cc1cc(C(=O)N2CCCC(C(=O)c3cc(F)ccc3F)C2)no1 (centres undefined),-3.3,,
COc1ccc(C2=NS(=O)(=O)N(C)C(C(=O)Nc3ccc(F)cc3F)=C2)cc1,21.9,,
CN(CC(=O)Nc1ccc(S(=O)(=O)N2CCCC2)cc1)Cc1cccc(Cl)c1Cl,-16.7,"23.1 µM [falling, partial curve, poor fit]",
Cn1c(=O)oc2cc(S(=O)(=O)CCC(=O)NCCc3ccccc3)ccc21,-12,,
COc1cc(C(=O)OCC(=O)NC2CC2)cc(OC)c1OC,18.6,"10.3 µM [rising, partial curve, poor fit]",
CCOc1ccccc1N1CCN(C(=O)c2c(C)noc2C)CC1,7.35,"20.6 µM [rising, single point]",
COc1ccc(CCNC(=O)/C=C/C(=O)O)cc1,32.5,"7.31 µM [falling, partial curve, poor fit]",
CCc1ccc(OCCOCC(O)CN(CCO)CCO)cc1 (centres undefined),-16.7,"0.291 µM [falling, full curve, poor fit]",
CN(C)c1cccc(C(=O)NCC(c2ccco2)N(C)C)c1 (centres undefined),-7.89,,
CCCCn1c2nc3ccccc3nc2c2c(=O)n(CCC(C)C)cnc21,0.829,,"6.51 µM [rising, single point]"
CCS(=O)(=O)Nc1cccc(-c2cn3c(n2)SCC3)c1,30.1,"29.1 µM [rising, single point]","23.1 µM [rising, single point]"
COc1ccc2c(c1)[C@H]1[C@H](CO2)[C@H](c2ccccc2)[C@]2(C)C(=O)Nc3cc(F)c(F)cc3C(=O)N12,0.066,"3.26 µM [falling, single point]",
CCN(CC)C(=O)C1=C(C)NC(=S)NC1c1cccs1 (centres undefined),-17.2,"6.51 µM [falling, partial curve]","0.82 µM [rising, single point]"
O=C(C1CCN(S(=O)(=O)c2cc(Cl)ccc2Cl)CC1)N1CCCC1,16.7,,
CCSc1nnc(NC(=O)C(Cc2ccccc2)n2cccc2)s1 (centres undefined),-28.8,,"0.0164 µM [falling, full curve]"

SMILES,cell number change [%],AC50 [1],AC50 [2]
Cc1cc(CNC(=O)c2ccc(C)c([N+](=O)[O-])c2)c2ccccc2n1,,"0.517 µM [rising, partial curve]","0.366 µM [rising, partial curve]"
Cc1cc2oc(=O)cc(CN3CCN(S(=O)(=O)/C=C/c4ccccc4)CC3)c2cc1C,-1.36,"3.26 µM [rising, partial curve]",
O=C(Nc1ccc2c(c1)OCCO2)NC1CCCCC1,,"29.1 µM [falling, single point]","5.8 µM [falling, partial curve]"
CCOC(=O)c1sc(-c2ccccc2)cc1NC(=O)CSc1nnnn1C,-18.9,"23.1 µM [rising, partial curve, poor fit]",
Cc1cc(C)nc(N/N=C/c2c(C)oc3ccccc23)n1,,,"0.82 µM [rising, partial curve]"
Nc1nnc(CCCCc2cccs2)o1,-14,"29.1 µM [falling, single point]",
O=C(Cn1c(=O)c2cccn2c2cccnc21)N1CCN(c2ccc(Cl)cc2)CC1,-40.5,,"32.6 µM [falling, single point]"
N#Cc1ccccc1COC(=O)c1ccc2c(c1)OCO2,-32.7,"16.4 µM [falling, single point]","29.1 µM [falling, single point]"
Cc1ccsc1/C=N/NC(=O)c1ccncc1,48.2,"3.66 µM [falling, partial curve, poor fit]","3.26 µM [falling, partial curve]"
CC1Cc2ccccc2C(=O)N1 (centres undefined),-14.8,"29.1 µM [falling, single point]",
COC(=O)C(NC(=O)CCC(=O)N[C@@H](C(=O)OC)c1ccccc1)c1ccccc1 (some centres undefined),11,"29.1 µM [rising, single point]",
CC1(C)CC2CC(C)(CN2S(=O)(=O)c2ccc(C(=O)Nc3cc(S(=O)(=O)N4CCOCC4)ccc3Cl)cc2)C1 (centres undefined),,,"6.51 µM [rising, single point]"
COC(=O)c1cnc(SC)nc1C,-102,"29.1 µM [falling, partial curve]","29.1 µM [falling, single point]"
COCCn1nnnc1C(C(C)C)N(Cc1ccccc1)Cc1cc2cc(OC)ccc2[nH]c1=O (centres undefined),-47.7,,"29.1 µM [falling, single point]"
COc1cc(SC)ccc1C(=O)NNC(=O)c1cc(C)oc1C,100,,
COc1ccc(NC(=O)c2ccc(=O)[nH]c2)cc1S(=O)(=O)N1CCCCC1,-14.6,"7.31 µM [falling, partial curve, poor fit]",
c1coc(-c2ccnc(-n3cccc3)n2)c1,7.56,"0.517 µM [rising, full curve]",
Cc1ccc(SCCNC(=S)Nc2ccccc2)cc1,38.2,"2.31 µM [rising, partial curve]","9.2 µM [rising, partial curve]"
COc1ccc(C2C(C(=O)c3ccccc3)N3c4ccccc4C=CC3C2[N+](=O)[O-])cc1 (centres undefined),-50.7,"2.31 µM [rising, partial curve]","2.06 µM [falling, partial curve]"
OC(COc1cccc2ccccc12)CN1CCN(c2ccccn2)CC1 (centres undefined),-28.7,"23.1 µM [falling, single point]",

# Part of the list above, tab-delimited:
SMILES	cell number change [%]	AC50 [1]	AC50 [2]
CN(CC(=O)Nc1ccc(S(=O)(=O)N2CCCC2)cc1)Cc1cccc(Cl)c1Cl	-16.7	23.1 µM [falling, partial curve, poor fit]	
CCOc1ccccc1N1CCN(C(=O)c2c(C)noc2C)CC1	7.35	20.6 µM [rising, single point]	

# Later entries

SMILES,cell number change [%],AC50 [1],AC50 [2]
COc1ccc(OC2C(=O)N(c3cc(C)ccc3C)C2c2ccc(OC)c(OC)c2)cc1 (centres undefined),-15.4,,
O=C(Cc1ccc(Br)cc1)Nc1ccccc1Sc1ccccc1,138,,
CSc1nn2cc(CCN3CCOCC3)c(-c3ccc(F)cc3)nc2c1C#N,22.7,"0.731 µM [rising, full curve, poor fit]","0.731 µM [rising, full curve, poor fit]"
CC(=O)c1sc(NC(=O)CCN2C(=O)C3CC=CCC3C2=O)nc1-c1ccccc1 (centres undefined),,"0.58 µM [rising, partial curve, poor fit]",
CCc1nc(SCc2ccc(OC)c(Br)c2)n[nH]1,11.9,"23.1 µM [rising, single point]",
O=C(O)CCC(=O)Nc1cccc(-c2nnc(-c3ccccc3)o2)c1,-6.04,"29.1 µM [rising, single point]","0.058 µM [falling, full curve, poor fit]"
CCOc1c(Nc2ccccc2O)c(=O)c1=O,11.6,"23.1 µM [rising, single point]",
CCOc1ccc(/C=C/C(=O)OCC(=O)NCCc2ccc(OCC)c(OCC)c2)cc1OC,-53.9,,"29.1 µM [falling, single point]"
COc1ccc(/C=C/C(=O)O)cc1S(=O)(=O)Nc1ccc2c(c1)OCO2,11.7,,
CN(Cc1ccccc1)C(=S)NC(=O)c1ccccc1,31.5,"29.1 µM [rising, single point]","29.1 µM [rising, single point]"
COc1ccc(/C=N/NC(=O)Cc2csc(Nc3cccc(C(F)(F)F)c3)n2)cc1C,-38,"16.4 µM [falling, partial curve]","29.1 µM [falling, single point]"
CC(=O)N1CCN(S(=O)(=O)c2cccc(C(=O)Nc3ccc(OC(F)F)cc3)c2)CC1,-3.81,,"0.0651 µM [rising, full curve, poor fit]"
Cc1ccccc1CSc1nnc(-c2cccnc2)n1N,-5.71,,
CC1=C(C(=O)OC(C)C)C(C)NC(=O)N1 (centres undefined),3.7,"29.1 µM [falling, single point]",
O=C(O)c1cc(S(=O)(=O)N2CCOCC2)ccc1N1CCOCC1,-5.81,"29.1 µM [falling, single point]",
NCc1ccc(-c2nc3ccccc3o2)cc1,1.44,,
CCOC(=O)c1csc(COc2ccccc2Cl)n1,50.7,"18.4 µM [rising, single point]","25.9 µM [rising, single point]"
CCN(CC(O)Cn1c2ccccc2c2ccccc21)S(=O)(=O)c1ccc(F)cc1 (centres undefined),-5.55,,
O=C(CN1C(=O)NC2(CCCC2)C1=O)OCc1c(F)cccc1Cl,-96.7,"16.4 µM [falling, single point]","20.6 µM [falling, single point]"
O=C(COc1ccc(Cl)cc1Cl)NCCC1=CCCCC1,-25.9,"14.6 µM [falling, single point]",
